Results are given in words; binding and its absence hold for the method and conditions named. For some assays here: Binding seen in cells or lysates may run through a third protein. Some results given as binding are weak or reduced against the parent protein; the word gives no strength. For some assays here: Where a sequence is shown, tags or fusion partners need not be part of it.
Key:
[1] = target: T1, human MPC1 fused to an 8xHis tag (human) (UniProt Q9Y5U8); assay: co-purification (Co-IMAC, then gel filtration); co-expression set 1 in yeast 3Δ; membranes extracted with 1% DDM; MPC1-8xHis held on TALON cobalt beads, then Superdex 200 in 0.03% DDM; bands identified by mass spectrometry, MPC2-GFP by silver staining and in-gel fluorescence
T1 sequence: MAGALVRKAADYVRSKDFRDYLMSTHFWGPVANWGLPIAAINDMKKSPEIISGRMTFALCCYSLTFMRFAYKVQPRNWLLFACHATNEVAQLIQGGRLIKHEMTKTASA

Protein sequences, listed by entry. Tags and fused reporters are not part of them.
UniProt O95563: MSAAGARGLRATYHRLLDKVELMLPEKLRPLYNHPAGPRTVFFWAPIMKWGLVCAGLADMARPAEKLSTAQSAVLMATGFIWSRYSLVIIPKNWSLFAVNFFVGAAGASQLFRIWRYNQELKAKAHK
UniProt P02406: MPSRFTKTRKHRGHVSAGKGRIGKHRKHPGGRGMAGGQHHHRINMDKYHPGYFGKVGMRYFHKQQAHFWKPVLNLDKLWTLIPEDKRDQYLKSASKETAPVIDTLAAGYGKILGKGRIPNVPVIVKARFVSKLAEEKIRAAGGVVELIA

[2] = target: MPC2-GFP-10xHis (human) (UniProt O95563); assay: cross-linking; human MPC2 in isolated yeast mitochondrial extracts, 0.2 mM DSS (11.4 Å linker), electrophoretic separation

binding [1] | binding [2] | Substance
binds |  | yeast 60 S ribosomal protein L28 (from UniProt P02406 1-149)
 | binds | MPC2-GFP-10xHis (from UniProt O95563 1-127)

Reference: publication PMC5823908, “Human mitochondrial pyruvate carrier 2 as an autonomous membrane transporter” (Scientific Reports, 2018)
